The experiment concerns guinea pig papillary muscles. The experiment can be described thus: Electrophysiological studies: transmembrane action potentials of isolated papillary muscle. The experiment is classed as cell-based, Guinea pigs. Here is the method: Guinea pigs (300-350 g) were anesthetized by intravenous injection of sodium pentobarbital (60 mg/kg). After thoracotomy the heart was rapidly excised and placed in oxygenated Tyrode solution. Papillary muscles were removed from the right ventricle. Preparations were then fixed to the silastic base of a 5 ml organ bath and superfused with oxygenated Tyrode solution maintained at 37 ± 1 °C.
The solution was equilibrated with a gas mixture of 95% O2 - 5% CO2.
After a stabilisation period (at least 1 h), transmembrane action potentials were recorded with conventional microelectrodes (10 MOhm) connected to a high input impedance amplifier (BIOLOGIC VF 180). External stimuli were delivered to the preparation with bipolar platinum electrodes placed at one end of the muscle. The pulse duration was 1 ms and the amplitude was twice threshold. The basic cycle length was 1000 ms (PULSAR 6i stimulator). The signals were monitored on a storage oscilloscope (GOULD 1602) and simultaneously recorded on a digital tape recorder (BIOLOGIC DTR 1200) for further analysis.
Measurements were made of resting membrane potential (RMP), action potential amplitude (APA) and action potential durations at 30, 50 and 90% repolarization (APD30, APD50 and APD90 respectively). Recordings were made after 30 min of equilibration for each concentration. Only recordings in which the same impalement was maintained throughout the entire experiment were used for analysis.

Each structure is given as a SMILES string.

Data on one compound can be found in patent EP0852142A1, “Diamines in the treatment of arrhythmia” (SMITHKLINE BEECHAM LABORATOIRES PHARMACEUTIQUES, priority 1992, dated 1993).

`COc1ccc(CCN(C)CCCN(C(=O)c2ccc([N+](=O)[O-])cc2)c2ccc(OC)c(OC)c2)cc1OC` [Compound I, (N-[3,4-dimethoxy-phenyl]-N-3-[N'-2-(3,4-dimethoxyphenyl)-ethyl-N'-methylamino]propyl)-N'-4-nitrobenzamide] registered an APA (0.3 µM, action potential amplitude) of 128 ± 1 mV; an APA (1 µM) of 127 ± 1 mV; an APA (3 µM) of 126 ± 1 mV; an APA (10 µM) of 125 ± 1 mV. Moreover, the APD30 runs as follows: (0.3 µM, action potential duration at 30 % of the repolarization) 114 ± 4 ms; (1 µM) 111 ± 5 ms; (3 µM) 103 ± 6 ms; (10 µM) 84 ± 5 ms. In addition, the APD90 reads like this: (0.3 µM, action potential duration at 90 % of the repolarization) 206 ± 8 ms; (1 µM) 222 ± 7 ms; (3 µM) 218 ± 6 ms; (10 µM) 198 ± 6 ms.
